Measured values reported in patent US20070031840.
For part of these data: No signal at the amounts used counts as a negative. For part of these data: The exact form of at least one protein or probe is not confirmed.

Sequences of proteins named here, by UniProt entry; tags and fusion partners are left off. A change or cut given only in a name is not applied to a line headed by its entry.
UniProt Q9UBU3: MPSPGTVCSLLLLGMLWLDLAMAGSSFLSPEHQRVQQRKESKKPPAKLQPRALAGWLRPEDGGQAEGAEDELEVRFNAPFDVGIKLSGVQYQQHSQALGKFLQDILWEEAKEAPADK

Tests used:
[1] = system: desoctanoyl-ghrelin (1-5) (Homo sapiens); assay: competition with a labelled probe; conditions: L-RNA (all positions, Spiegelmer); desoctanoyl-ghrelin (1-5) does not compete; CHO GHS-R1a calcium assay; synthetic protein; synthetic backbone; mirror-image nucleic acid
[2] = target: desoctanoyl-ghrelin (full-length) (UniProt Q9UBU3); assay: competition with a labelled probe; conditions: L-RNA (all positions, Spiegelmer); 300 nM desoctanoyl-ghrelin (30-fold excess) does not compete for inhibition of 10 nM octanoyl-ghrelin by 30 nM L-NOX-B11; CHO GHS-R1a calcium assay; synthetic protein; protein details: synthetic L-peptide, no octanoyl group (Bachem); synthetic backbone; mirror-image nucleic acid
[3] = target: octanoyl-ghrelin (full-length) (UniProt Q9UBU3); assay: activity in cells; conditions: L-RNA (all positions, Spiegelmer); inhibition of calcium release in CHO GHS-R1a cells, 5 nM peptide; synthetic protein; synthetic backbone; mirror-image nucleic acid
[4] = system: octanoyl-ghrelin (1-5) (Homo sapiens); assay: activity in cells; conditions: L-RNA (all positions, Spiegelmer); inhibition of calcium release in CHO GHS-R1a cells, 5 nM peptide; synthetic protein; synthetic backbone; mirror-image nucleic acid
[5] = system: octanoyl-ghrelin (1-10) (Homo sapiens); assay: activity in cells; conditions: L-RNA (all positions, Spiegelmer); inhibition of calcium release in CHO GHS-R1a cells, 5 nM peptide; synthetic protein; synthetic backbone; mirror-image nucleic acid
[6] = target: D-octanoyl-ghrelin (all-D enantiomer) (UniProt Q9UBU3); assay: pull-down; conditions: L-RNA (all positions, Spiegelmer), 5 uM biotinylated D-ghrelin, same buffer, 37 C, enantiomer control, synthetic protein, protein details: synthetic D-peptide, octanoylated, label: 32P 5', synthetic backbone, mirror-image nucleic acid, variant of L-NOX-B11

Sequence | binding result [1] | binding result [2] | IC50 [3] | IC50 [4] | IC50 [5] | binding result [6]
CGUGUGAGGCAAUAAAACUUAAGUCCGAAGGUAACCAAUCCUACACG [L-NOX-B11] | no binding | no binding | 7 nM | 5 nM | 9 nM | 
CGUGUGAGGCAAUAAAACUUAAGUCCGAAGGUAACCAAUCCUACACG [L-NOX-B11 (32P-labelled)] |  |  |  |  |  | no binding
